PubChem BioAssay AID1224828 | NIAID, 2016

- Test: 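Regulators linking TLR4 signalling to p65 nuclear translocation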 (primary screen)
- Cell system: mouse RAW264.7 G9 macrophage reporter cells (GFP-p65, Tnf promoter-mCherry)
- Reagents: siRNA pool against mouse genes, 100 nM
- Time to read-out: 2 days siRNA transfection, then 40 min LPS before fixation
- Treatment: LPS (Salmonella minnesota R595) at 10 ng/ml
- Measurement: 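Imaged p65 nuclear translocation ratio, normalised to the plate median, converted to robust z-scores and averaged across two replicates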
- Direction: p65 translocation robust z-score: higher = more nuclear NF-kappaB p65 after LPS than the plate median; nuclear/cytoplasmic p65 ratio: higher = more nuclear NF-kappaB p65
- Rule for the call: 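Active if robust z is above 3.3 (negative regulators) or below -1.56, the Tlr4 control median (positive regulators); activity score 50 or more; control wells not called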
- Meaning of the calls: active = hit (p65 shift raised or lowered); inactive = no clear change
Here is an unselected part of about 17,000 deposited reagents. 762 of them (4.5%) count as active. 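Active calls include both raised and lowered p65 entry, mostly lowered; wells with fewer than 50 cells lack a z-score.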 Raw values vary from plate to plate and are shown uncorrected. A number with no mark means an inactive call.

| p65 translocation robust z-score | nuclear/cytoplasmic p65 ratio, rep 1 | nuclear/cytoplasmic p65 ratio, rep 2 | low cell count flag | gene |
| --- | --- | --- | --- | --- |
| -1.75 (active) | 1.34 | 1.17 | enough cells to score | Gjb4 |
| -1.26 | 1.19 | 1.12 | enough cells to score | Or51d1 |
| 1.37 | 1.59 | 1.6 | enough cells to score | Fabp1 |
| -0.38 | 1.49 | 1.44 | enough cells to score | Tbx3 |
| 0 | 1.51 | 1.52 | enough cells to score | Atxn2 |
| -0.14 | 1.35 | 1.42 | enough cells to score | Gad1 |
| 1.56 | 1.59 | 1.42 | enough cells to score | Phf8 |
| 0.68 | 1.8 | 1.59 | enough cells to score | Hapln4 |
| 0.62 | 1.49 | 1.69 | enough cells to score | Trim14 |
| – | 1.29 | 1.18 | fewer than 50 cells per well; well left out of scoring | Mcl1 |
| 1.12 | 1.98 | 1.75 | enough cells to score | Mrpl52 |
| – | 1.1 | 1.01 | fewer than 50 cells per well; well left out of scoring | Ncln |
| – | 1.09 | 0.892 | fewer than 50 cells per well; well left out of scoring | Spsb3 |
| 1.53 | 1.66 | 1.41 | enough cells to score | Pcnx1 |
| -0.28 | 1.5 | 1.29 | enough cells to score | Cpne7 |
| 0.08 | 1.81 | 1.48 | enough cells to score | Mycl |
| -1.25 | 1.58 | 1.4 | enough cells to score | Nedd9 |
| 0.99 | 1.57 | 1.55 | enough cells to score | Il19 |
| 0.42 | 1.48 | 1.84 | enough cells to score | Capn9 |
| 0.59 | 1.52 | 1.42 | enough cells to score | Map2 |
| 1.11 | 1.57 | 1.54 | enough cells to score | Psmb11 |

5 neighbouring entries from above, quoted:
| p65 translocation robust z-score | nuclear/cytoplasmic p65 ratio, rep 1 | nuclear/cytoplasmic p65 ratio, rep 2 | low cell count flag | gene |
| --- | --- | --- | --- | --- |
| 0.62 | 1.49 | 1.69 | enough cells to score | Trim14 |
| – | 1.29 | 1.18 | fewer than 50 cells per well; well left out of scoring | Mcl1 |
| 1.12 | 1.98 | 1.75 | enough cells to score | Mrpl52 |
| – | 1.1 | 1.01 | fewer than 50 cells per well; well left out of scoring | Ncln |
| – | 1.09 | 0.892 | fewer than 50 cells per well; well left out of scoring | Spsb3 |

The list goes on.
| p65 translocation robust z-score | nuclear/cytoplasmic p65 ratio, rep 1 | nuclear/cytoplasmic p65 ratio, rep 2 | low cell count flag | gene |
| --- | --- | --- | --- | --- |
| 1.78 | 1.65 | 1.43 | enough cells to score | Zbtb43 |
| -0.93 | 1.39 | 1.36 | enough cells to score | Tuba1b |
| 0.6 | 1.71 | 1.76 | enough cells to score | Alkbh6 |
| -0.06 | 1.61 | 1.61 | enough cells to score | Akr7a5 |
| -0.17 | 1.4 | 1.53 | enough cells to score | Skint10 |
| -0.93 | 1.23 | 1.43 | enough cells to score | A630026L20 |
| -0.54 | 1.57 | 1.51 | enough cells to score | Actg1 |
| 1.09 | 1.46 | 1.43 | enough cells to score | Sec16b |
| 0.05 | 1.64 | 1.62 | enough cells to score | Clca2 |
| -0.33 | 1.31 | 1.41 | enough cells to score | Igf2bp1 |
| -0.05 | 1.46 | 1.65 | enough cells to score | Defb34 |
| -0.17 | 1.57 | 1.75 | enough cells to score | Cbll1 |
| -0.53 | 1.66 | 1.28 | enough cells to score | Cdc7 |
| -0.57 | 1.47 | 1.58 | enough cells to score | Rgcc |
| -0.28 | 1.49 | 1.53 | enough cells to score | Gpr137b |
| – | 1.66 | 1.48 | fewer than 50 cells per well; well left out of scoring | Duxbl1 |
| 0.17 | 1.52 | 1.38 | enough cells to score | Il1b |
| – | 1.59 | 1.17 | fewer than 50 cells per well; well left out of scoring | Tcl1b3 |
| – | 1.27 | 1.19 | fewer than 50 cells per well; well left out of scoring | Nabp1 |
| 0.11 | 1.26 | 1.42 | enough cells to score | Ptpn14 |
| -0.72 | 1.26 | 1.22 | enough cells to score | Zfp955a |
| -0.94 | 1.4 | 1.37 | enough cells to score | Yap1 |
| 0.15 | 1.5 | 1.4 | enough cells to score | Vrk2 |
| 0.44 | 1.67 | 1.69 | enough cells to score | Cmbl |
| -0.12 | 1.72 | 1.47 | enough cells to score | Abca4 |
| -0.73 | 1.43 | 1.47 | enough cells to score | Srrt |
| -0.46 | 1.45 | 1.64 | enough cells to score | Smo |
| 1.01 | 1.63 | 1.77 | enough cells to score | Sod2 |
| -0.37 | 1.67 | 1.58 | enough cells to score | Cacnb3 |
| – | 1.14 | 1.35 | fewer than 50 cells per well; well left out of scoring | Vat1 |
| – | 1.07 | 1.1 | fewer than 50 cells per well; well left out of scoring | Bcl11b |
| 0.04 | 1.62 | 1.63 | enough cells to score | Adh7 |
| -0.5 | 1.13 | 1.17 | enough cells to score | Slc7a10 |
| -0.36 | 1.56 | 1.45 | enough cells to score | B230325K18Rik |
| – | 1.49 | 1.34 | fewer than 50 cells per well; well left out of scoring | 1110006O24Rik |
| 0.01 | 1.61 | 1.51 | enough cells to score | B3gat3 |
| -0.9 | 1.4 | 1.63 | enough cells to score | Nmd3 |
| 1.38 | 1.47 | 1.76 | enough cells to score | Chac2 |
